# Measurements: publication PMC8129428
# Protein sequences, listed by entry. Tags and fused reporters are not part of them.
# UniProt Q96LA8: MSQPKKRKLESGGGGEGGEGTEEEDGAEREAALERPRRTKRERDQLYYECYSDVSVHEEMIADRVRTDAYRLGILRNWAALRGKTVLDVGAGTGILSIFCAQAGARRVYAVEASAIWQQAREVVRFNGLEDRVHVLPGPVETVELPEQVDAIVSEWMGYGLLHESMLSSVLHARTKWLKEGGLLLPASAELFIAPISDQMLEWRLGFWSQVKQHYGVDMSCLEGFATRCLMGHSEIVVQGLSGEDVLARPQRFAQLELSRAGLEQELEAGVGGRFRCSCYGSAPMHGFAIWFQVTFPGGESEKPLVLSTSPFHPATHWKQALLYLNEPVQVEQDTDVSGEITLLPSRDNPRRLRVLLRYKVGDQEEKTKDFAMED
# UniProt Q9NYF8: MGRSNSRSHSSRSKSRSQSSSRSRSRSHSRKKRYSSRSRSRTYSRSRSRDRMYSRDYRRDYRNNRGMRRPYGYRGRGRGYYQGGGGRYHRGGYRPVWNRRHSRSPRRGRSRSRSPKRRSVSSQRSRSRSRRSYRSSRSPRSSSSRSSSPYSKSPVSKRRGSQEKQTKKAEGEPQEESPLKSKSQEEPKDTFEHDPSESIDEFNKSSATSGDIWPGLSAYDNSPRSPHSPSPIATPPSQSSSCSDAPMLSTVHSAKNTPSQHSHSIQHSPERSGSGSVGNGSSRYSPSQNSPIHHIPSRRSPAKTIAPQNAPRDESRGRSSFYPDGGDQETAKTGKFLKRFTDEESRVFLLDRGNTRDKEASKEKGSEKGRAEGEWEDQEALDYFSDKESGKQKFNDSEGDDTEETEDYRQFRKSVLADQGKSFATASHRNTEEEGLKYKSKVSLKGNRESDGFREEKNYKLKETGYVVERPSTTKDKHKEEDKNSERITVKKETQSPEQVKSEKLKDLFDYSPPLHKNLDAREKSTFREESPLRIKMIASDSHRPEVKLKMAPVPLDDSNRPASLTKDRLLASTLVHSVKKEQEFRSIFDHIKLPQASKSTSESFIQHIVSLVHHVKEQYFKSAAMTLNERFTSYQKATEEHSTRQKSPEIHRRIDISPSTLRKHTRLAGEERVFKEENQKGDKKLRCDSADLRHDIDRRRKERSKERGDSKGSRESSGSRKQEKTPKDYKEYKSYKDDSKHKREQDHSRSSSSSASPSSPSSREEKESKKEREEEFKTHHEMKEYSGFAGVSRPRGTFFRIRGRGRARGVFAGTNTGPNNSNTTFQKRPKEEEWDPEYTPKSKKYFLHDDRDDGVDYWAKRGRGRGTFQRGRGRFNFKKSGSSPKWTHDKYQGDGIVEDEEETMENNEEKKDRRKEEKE
# UniProt Q12905: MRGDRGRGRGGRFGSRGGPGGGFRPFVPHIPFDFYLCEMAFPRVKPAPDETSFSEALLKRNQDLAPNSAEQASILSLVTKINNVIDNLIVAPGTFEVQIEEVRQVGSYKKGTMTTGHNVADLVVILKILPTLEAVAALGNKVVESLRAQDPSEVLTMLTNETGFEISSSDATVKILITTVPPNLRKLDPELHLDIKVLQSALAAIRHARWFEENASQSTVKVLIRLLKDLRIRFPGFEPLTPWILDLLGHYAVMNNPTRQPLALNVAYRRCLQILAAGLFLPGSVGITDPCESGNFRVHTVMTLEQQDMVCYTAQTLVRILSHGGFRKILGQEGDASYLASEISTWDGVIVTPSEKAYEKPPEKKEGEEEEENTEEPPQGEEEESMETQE
# UniProt Q9UJU2: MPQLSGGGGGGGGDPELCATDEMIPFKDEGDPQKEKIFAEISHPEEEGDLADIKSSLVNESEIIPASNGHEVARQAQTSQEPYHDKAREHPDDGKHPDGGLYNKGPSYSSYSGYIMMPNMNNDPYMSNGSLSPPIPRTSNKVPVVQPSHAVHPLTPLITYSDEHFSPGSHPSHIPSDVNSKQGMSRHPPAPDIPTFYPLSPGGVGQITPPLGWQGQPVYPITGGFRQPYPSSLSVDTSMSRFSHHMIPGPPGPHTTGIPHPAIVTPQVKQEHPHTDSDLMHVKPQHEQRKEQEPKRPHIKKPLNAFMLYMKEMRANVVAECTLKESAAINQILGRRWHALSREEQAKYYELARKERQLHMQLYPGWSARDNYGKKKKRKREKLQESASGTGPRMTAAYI
# UniProt Q99873: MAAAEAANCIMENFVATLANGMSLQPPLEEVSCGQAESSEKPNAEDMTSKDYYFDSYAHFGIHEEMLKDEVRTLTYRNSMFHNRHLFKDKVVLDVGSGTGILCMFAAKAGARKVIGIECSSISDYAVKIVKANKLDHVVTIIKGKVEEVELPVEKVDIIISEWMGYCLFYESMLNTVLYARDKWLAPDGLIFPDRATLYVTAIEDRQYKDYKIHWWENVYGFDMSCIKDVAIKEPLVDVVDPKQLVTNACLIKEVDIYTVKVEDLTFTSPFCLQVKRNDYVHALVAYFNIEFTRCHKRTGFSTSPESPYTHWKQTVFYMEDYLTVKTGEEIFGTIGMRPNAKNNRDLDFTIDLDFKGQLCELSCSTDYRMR
# UniProt Q01196: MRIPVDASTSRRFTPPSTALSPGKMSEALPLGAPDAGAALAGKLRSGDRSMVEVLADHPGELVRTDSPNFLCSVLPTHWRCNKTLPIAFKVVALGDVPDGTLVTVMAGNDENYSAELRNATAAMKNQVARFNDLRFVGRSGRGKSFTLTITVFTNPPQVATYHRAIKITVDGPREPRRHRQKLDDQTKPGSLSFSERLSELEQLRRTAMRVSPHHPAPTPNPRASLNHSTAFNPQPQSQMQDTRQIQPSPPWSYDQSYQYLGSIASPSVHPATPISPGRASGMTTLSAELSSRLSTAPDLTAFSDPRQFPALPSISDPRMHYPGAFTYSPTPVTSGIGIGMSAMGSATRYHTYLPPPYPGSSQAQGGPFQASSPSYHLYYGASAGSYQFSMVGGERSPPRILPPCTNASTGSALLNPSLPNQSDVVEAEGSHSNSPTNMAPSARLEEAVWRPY
# UniProt P49750: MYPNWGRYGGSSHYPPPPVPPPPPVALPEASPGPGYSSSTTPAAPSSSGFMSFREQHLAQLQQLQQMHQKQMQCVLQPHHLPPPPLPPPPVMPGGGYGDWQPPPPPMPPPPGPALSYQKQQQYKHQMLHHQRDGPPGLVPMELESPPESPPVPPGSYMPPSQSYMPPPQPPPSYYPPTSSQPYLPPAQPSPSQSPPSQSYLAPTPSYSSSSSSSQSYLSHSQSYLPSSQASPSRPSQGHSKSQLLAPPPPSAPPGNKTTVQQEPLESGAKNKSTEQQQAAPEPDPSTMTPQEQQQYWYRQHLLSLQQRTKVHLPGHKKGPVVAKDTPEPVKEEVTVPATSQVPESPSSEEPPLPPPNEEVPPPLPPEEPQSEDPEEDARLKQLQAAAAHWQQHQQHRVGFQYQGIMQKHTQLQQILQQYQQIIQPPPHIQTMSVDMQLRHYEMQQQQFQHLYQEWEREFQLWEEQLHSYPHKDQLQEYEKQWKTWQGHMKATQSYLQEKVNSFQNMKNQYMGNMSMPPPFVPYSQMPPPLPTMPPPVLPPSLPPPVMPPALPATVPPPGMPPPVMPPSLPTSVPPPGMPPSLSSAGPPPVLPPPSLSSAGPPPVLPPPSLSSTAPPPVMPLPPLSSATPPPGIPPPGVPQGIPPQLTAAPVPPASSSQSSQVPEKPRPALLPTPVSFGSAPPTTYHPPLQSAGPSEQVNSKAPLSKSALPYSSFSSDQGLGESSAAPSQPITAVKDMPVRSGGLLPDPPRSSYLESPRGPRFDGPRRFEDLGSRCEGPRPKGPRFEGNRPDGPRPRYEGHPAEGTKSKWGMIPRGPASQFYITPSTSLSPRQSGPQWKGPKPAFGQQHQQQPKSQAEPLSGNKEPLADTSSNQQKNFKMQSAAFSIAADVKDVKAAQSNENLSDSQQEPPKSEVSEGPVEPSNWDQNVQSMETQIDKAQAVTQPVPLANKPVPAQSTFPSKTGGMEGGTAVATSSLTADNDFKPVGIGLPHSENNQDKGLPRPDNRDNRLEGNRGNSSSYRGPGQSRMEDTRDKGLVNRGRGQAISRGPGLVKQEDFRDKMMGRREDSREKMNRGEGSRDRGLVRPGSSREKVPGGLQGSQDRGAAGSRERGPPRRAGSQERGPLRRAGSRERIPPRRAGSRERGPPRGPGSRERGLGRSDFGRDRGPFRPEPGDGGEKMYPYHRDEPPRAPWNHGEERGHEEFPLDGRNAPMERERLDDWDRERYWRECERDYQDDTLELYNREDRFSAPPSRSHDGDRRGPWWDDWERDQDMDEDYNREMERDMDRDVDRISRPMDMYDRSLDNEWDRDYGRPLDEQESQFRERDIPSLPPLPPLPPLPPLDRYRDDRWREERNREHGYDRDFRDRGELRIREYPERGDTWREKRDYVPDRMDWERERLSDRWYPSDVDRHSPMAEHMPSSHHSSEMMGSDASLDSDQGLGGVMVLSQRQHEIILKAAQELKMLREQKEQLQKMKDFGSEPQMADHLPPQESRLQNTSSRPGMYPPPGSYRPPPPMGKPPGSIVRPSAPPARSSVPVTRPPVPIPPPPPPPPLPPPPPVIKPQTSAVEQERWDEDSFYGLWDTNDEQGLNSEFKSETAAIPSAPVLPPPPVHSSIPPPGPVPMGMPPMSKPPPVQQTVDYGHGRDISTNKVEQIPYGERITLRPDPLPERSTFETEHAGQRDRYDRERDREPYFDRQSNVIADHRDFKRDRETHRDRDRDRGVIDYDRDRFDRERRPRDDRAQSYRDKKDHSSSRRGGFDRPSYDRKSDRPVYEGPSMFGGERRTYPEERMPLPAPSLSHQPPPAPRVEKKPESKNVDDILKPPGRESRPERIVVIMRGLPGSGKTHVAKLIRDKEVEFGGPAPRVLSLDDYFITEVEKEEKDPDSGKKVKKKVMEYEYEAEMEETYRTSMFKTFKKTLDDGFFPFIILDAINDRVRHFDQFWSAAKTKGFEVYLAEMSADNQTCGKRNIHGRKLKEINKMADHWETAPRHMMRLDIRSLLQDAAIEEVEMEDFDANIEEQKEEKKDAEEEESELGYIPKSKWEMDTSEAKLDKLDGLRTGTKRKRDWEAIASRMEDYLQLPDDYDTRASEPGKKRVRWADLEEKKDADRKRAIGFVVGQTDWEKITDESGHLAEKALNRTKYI
# Results are given in words; binding and its absence hold for the method and conditions named. Binding seen in cells or lysates may run through a third protein. Here binding means that the protein was enriched with, or labelled near, the bait; the list need not be complete. For part of these data: Sequences can lack the tags named with a protein.
# B1: NONO, endogenous in K562, Q15233 1-471 (protein)
# chain: MQSNKTFNLEKQNHTPRKHHQHHHQQQHHQQQQQQPPPPPIPANGQQASSQNEGLTIDLKNFRKPGEKTFTQRSRLFVGNLPPDITEEEMRKLFEKYGKAGEVFIHKDKGFGFIRLETRTLAEIAKVELDNMPLRGKQLRVRFACHSASLTVRNLPQYVSNELLEEAFSVFGQVERAVVIVDDRGRPSGKGIVEFSGKPAARKALDRCSEGSFLLTTFPRPVTVEPMDQLDDEEGLPEKLVIKNQQFHKEREQPPRFAQPGSFEYEYAMRWKALIEMEKQQQDQVDRNIKEAREKLEMEMEAARHEHQVMLMRQDLMRRQEELRRMEELHNQEVQKRKQLELRQEEERRRREEEMRRQQEEMMRRQQEGFKGTFPDAREQEIRMGQMAMGGAMGINNRGAMPPAPVPAGTPAPPGPATMMPDGTLGLTPPTTERFGQAATMEGIGAIGGTPPAFNRAAPGAEFAPNKRRRY
# modifications: here or on the partner: biotin on the avi-tag (biotinylated in the cells by BirA-ligase)
# B2: POLDIP3, endogenous in K562 (protein, UniProt Q9BY77 1-421)
# chain: MADISLDELIRKRGAAAKGRLNARPGVGGVRSRVGIQQGLLSQSTRTATFQQRFDARQKIGLSDARLKLGVKDAREKLLQKDARFRIKGKVQDAREMLNSRKQQTTVPQKPRQVADAREKISLKRSSPAAFINPPIGTVTPALKLTKTIQVPQQKAMAPLHPHPAGMRINVVNNHQAKQNLYDLDEDDDGIASVPTKQMKFAASGGFLHHMAGLSSSKLSMSKALPLTKVVQNDAYTAPALPSSIRTKALTNMSRTLVNKEEPPKELPAAEPVLSPLEGTKMTVNNLHPRVTEEDIVELFCVCGALKRARLVHPGVAEVVFVKKDDAITAYKKYNNRCLDGQPMKCNLHMNGNVITSDQPILLRLSDSPSMKKESELPRRVNSASSSNPPAEVDPDTILKALFKSSGASVTTQPTEFKIKL
# B3: VGLL4, endogenous in K562 (protein, UniProt Q14135 1-290)
# chain: METPLDVLSRAASLVHADDEKREAALRGEPRIQTLPVASALSSHRTGPPPISPSKRKFSMEPGDEDLDCDNDHVSKMSRIFNPHLNKTANGDCRRDPRERSRSPIERAVAPTMSLHGSHLYTSLPSLGLEQPLALTKNSLDASRPAGLSPTLTPGERQQNRPSVITCASAGARNCNLSHCPIAHSGCAAPGPASYRRPPSAATTCDPVVEEHFRRSLGKNYKEPEPAPNSVSITGSVDDHFAKALGDTWLQIKAAKDGASSSPESASRRGQPASPSAHMVSHSHSPSVVS
# B4: LUC7L3, endogenous in K562 (protein, UniProt O95232 1-432)
# chain: MISAAQLLDELMGRDRNLAPDEKRSNVRWDHESVCKYYLCGFCPAELFTNTRSDLGPCEKIHDENLRKQYEKSSRFMKVGYERDFLRYLQSLLAEVERRIRRGHARLALSQNQQSSGAAGPTGKNEEKIQVLTDKIDVLLQQIEELGSEGKVEEAQGMMKLVEQLKEERELLRSTTSTIESFAAQEKQMEVCEVCGAFLIVGDAQSRVDDHLMGKQHMGYAKIKATVEELKEKLRKRTEEPDRDERLKKEKQEREEREKEREREREERERKRRREEEEREKERARDRERRKRSRSRSRHSSRTSDRRCSRSRDHKRSRSRERRRSRSRDRRRSRSHDRSERKHRSRSRDRRRSKSRDRKSYKHRSKSRDREQDRKSKEKEKRGSDDKKSSVKSGSREKQSEDTNTESKESDTKNEVNGTSEDIKSEGDTQSN
# B5: MBD1, endogenous in K562 (protein, UniProt Q9UIS9 1-605)
# chain: MAEDWLDCPALGPGWKRREVFRKSGATCGRSDTYYQSPTGDRIRSKVELTRYLGPACDLTLFDFKQGILCYPAPKAHPVAVASKKRKKPSRPAKTRKRQVGPQSGEVRKEAPRDETKADTDTAPASFPAPGCCENCGISFSGDGTQRQRLKTLCKDCRAQRIAFNREQRMFKRVGCGECAACQVTEDCGACSTCLLQLPHDVASGLFCKCERRRCLRIVERSRGCGVCRGCQTQEDCGHCPICLRPPRPGLRRQWKCVQRRCLRGKHARRKGGCDSKMAARRRPGAQPLPPPPPSQSPEPTEPHPRALAPSPPAEFIYYCVDEDELQPYTNRRQNRKCGACAACLRRMDCGRCDFCCDKPKFGGSNQKRQKCRWRQCLQFAMKRLLPSVWSESEDGAGSPPPYRRRKRPSSARRHHLGPTLKPTLATRTAQPDHTQAPTKQEAGGGFVLPPPGTDLVFLREGASSPVQVPGPVAASTEALLQEAQCSGLSWVVALPQVKQEKADTQDEWTPGTAVLTSPVLVPGCPSKAVDPGLPSVKQEPPDPEEDKEENKDDSASKLAPEEEAGGAGTPVITEIFSLGGTRFRDTAVWLPRSKDLKKPGARKQ
# B6: ILF3, endogenous in K562 (protein, UniProt Q12906 1-894)
# chain: MRPMRIFVNDDRHVMAKHSSVYPTQEELEAVQNMVSHTERALKAVSDWIDEQEKGSSEQAESDNMDVPPEDDSKEGAGEQKTEHMTRTLRGVMRVGLVAKGLLLKGDLDLELVLLCKEKPTTALLDKVADNLAIQLAAVTEDKYEILQSVDDAAIVIKNTKEPPLSLTIHLTSPVVREEMEKVLAGETLSVNDPPDVLDRQKCLAALASLRHAKWFQARANGLKSCVIVIRVLRDLCTRVPTWGPLRGWPLELLCEKSIGTANRPMGAGEALRRVLECLASGIVMPDGSGIYDPCEKEATDAIGHLDRQQREDITQSAQHALRLAAFGQLHKVLGMDPLPSKMPKKPKNENPVDYTVQIPPSTTYAITPMKRPMEEDGEEKSPSKKKKKIQKKEEKAEPPQAMNALMRLNQLKPGLQYKLVSQTGPVHAPIFTMSVEVDGNSFEASGPSKKTAKLHVAVKVLQDMGLPTGAEGRDSSKGEDSAEETEAKPAVVAPAPVVEAVSTPSAAFPSDATAEQGPILTKHGKNPVMELNEKRRGLKYELISETGGSHDKRFVMEVEVDGQKFQGAGSNKKVAKAYAALAALEKLFPDTPLALDANKKKRAPVPVRGGPKFAAKPHNPGFGMGGPMHNEVPPPPNLRGRGRGGSIRGRGRGRGFGGANHGGYMNAGAGYGSYGYGGNSATAGYSQFYSNGGHSGNASGGGGGGGGGSSGYGSYYQGDNYNSPVPPKHAGKKQPHGGQQKPSYGSGYQSHQGQQQSYNQSPYSNYGPPQGKQKGYNHGQGSYSYSNSYNSPGGGGGSDYNYESKFNYSGSGGRSGGNSYGSGGASYNPGSHGGYGGGSGGGSSYQGKQGGYSQSNYNSPGSGQNYSGPPSSYQSSQGGYGRNADHSMNYQYR
# Biological target: avi-PRMT6 (protein arginine methyltransferase 6), biotinylated, in K562 cells, Q96LA8
# Assay: affinity purification with mass spectrometry; avi-PRMT6 pulled from K562 nuclear extracts with streptavidin beads (Dynabeads M-280); SILAC heavy (avi-PRMT6 + BirA-ligase) against light (control); washes 10 mM Tris pH 7.5, 0.2 M NaCl, 10% glycerol, 0.5 mM DTT, 0.1% NP-40; LC-MS/MS
# Settings: remark: other sources report otherwise
row,binding,Molecule
1,binds,B1

# Biological target: avi-PRMT6 (protein arginine methyltransferase 6), biotinylated, in K562 cells (UniProt Q96LA8)
# Assay: as above
# Settings: not given
row,binding,Molecule
1,binds,"BCLAF1, endogenous in K562 (from UniProt Q9NYF8 1-920)"
2,binds,"ILF2, endogenous in K562 (from UniProt Q12905 1-390)"
3,binds,"LEF1, endogenous in K562 (from UniProt Q9UJU2 1-399)"
4,binds,"PRMT1, endogenous in K562 (from UniProt Q99873 1-371) (enzyme)"
5,binds,"RUNX1, endogenous in K562 (from UniProt Q01196 1-453)"
6,binds,"YLPM1, endogenous in K562 (from UniProt P49750 1-2146)"
7,binds,B2
8,binds,B3
9,binds,B4
10,binds,B5
11,binds,B6
